# Measurements published in PubChem BioAssay AID662 (National Center for Advancing Translational Sciences (NCATS), 2007).
# Where “and” joins values, the source holds several entries; their conditions need not be identical. Equal entries are not always repeated. Some of the results follow. These are further read-outs of the screen, such as a control signal, another cell line or another target. No call is given for them. Most of these compounds were active or inconclusive in the main read-out, so they are no random draw. Words in brackets tell the shape of the fitted curve; partial curves, single points and poor fits give uncertain potencies.
# Experiment: Cell signaling CRE-BLA (Fsk stim)
# Settings: CHO CRE-bla reporter (cAMP response element driving beta-lactamase), forskolin EC10, beta-lactamase ratio; measured here: 460 nm blue channel
# Method in brief: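 Titrated compounds plus EC10 NKH 477 on CHO CRE-bla cells, 3 h, 37 °C. CCF4, 2 h RT. Ratio 460/530 nm → AC50.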
row,SMILES,AC50
1,Cc1ccc(SC(C)c2nc(-c3ccccc3)no2)cc1 (stereo not drawn),"0.00398 µM [falling, full curve, poor fit]"
2,Cc1cc(C)nc(SCNC(=O)c2ccc(F)cc2)n1,"15.8 µM [rising, single point]"
3,Cn1c(=O)c2[nH]c(CNCc3ccccc3Cl)nc2n(C)c1=O,"10 µM [rising, single point]"
4,COc1ccc(OC)c(NC(=O)C2C3CCC(O3)C2C(=O)O)c1 (stereo not drawn),"12.6 µM [rising, single point]"
5,CCNc1ncc2nc(CCc3ccccc3)c(=O)n(C[C@H]3CCCO3)c2n1,"10 µM [rising, partial curve, poor fit]"
6,COc1ccccc1CCn1c(=O)c(-c2ccc(F)cc2)nc2cncnc21,"20 µM [rising, partial curve, poor fit]"
7,O=C(CSc1nnc2scc(-c3ccccc3)n12)Nc1nsc(-c2ccccc2)n1,"5.01 µM [rising, partial curve]"
8,O=c1c(-c2cc(F)cc(F)c2)nc2cnc(N3CCNCC3)nc2n1CCc1ccccc1,"3.16 µM [rising, full curve]"
9,COc1cccc(C(=O)Nc2ccc(C(=O)O)cc2)c1,"12.6 µM [rising, single point]"
10,COc1cc(C(=O)Nc2c(-c3ccccn3)c(=O)c3ccccc3n2C)cc(OC)c1OC,"0.794 µM [rising, full curve]"
11,N#Cc1nc(COc2cccc(Cl)c2)oc1NCc1ccncc1,"10 µM [rising, single point]"
12,CCCCOCCCn1cnc2c([nH]c3cc(OC)ccc32)c1=O,"12.6 µM [rising, single point]"
13,CCCCN(C)CCCNC(=O)C1CC(=O)N(Cc2ccc(OC)cc2)C1 (stereo not drawn),"0.0316 µM [falling, full curve, poor fit]"
14,CN(C(=O)NC(=O)C1=C(N2CCOCC2)/C(=C/c2ccccc2)CC1)S(C)(=O)=O,"15.8 µM [rising, single point]"
15,COc1ccc(C(=O)N2CCSC2=S)cc1OC,"10 µM [falling, partial curve]"
16,CCCC(=O)Nc1cccc(-c2cn3ccsc3n2)c1,"12.6 µM [rising, single point]"
17,Cc1cc2c(c(N)n1)c(=O)oc1ccccc12,"1.26 µM [rising, full curve]"
18,CCCN1Cc2cccc(C(=O)NCc3ccc4c(c3)OCO4)c2C1=O,"12.6 µM [rising, partial curve]"
19,Cc1nn(-c2ccc(F)cc2F)c2c1-c1nc(N3CCCC3)ncc1CC2,"10 µM [rising, partial curve]"
20,CCCN1Cc2cccc(C(=O)Nc3cc(OC)cc(OC)c3)c2C1=O,"1.26 µM [rising, full curve]"
21,COC(=O)c1ccc(COc2cc(O)c3c(c2)OC(C)(C)CC3=O)cc1,"25.1 µM [rising, single point]"
22,N=c1n(CCN2CCCCC2)c2ccccc2n1CC(O)c1cccc(Br)c1 (stereo not drawn),"7.94 µM [falling, partial curve]"

# Exported tab-delimited: part of the list above.
row	SMILES	AC50
17	Cc1cc2c(c(N)n1)c(=O)oc1ccccc12	1.26 µM [rising, full curve]
18	CCCN1Cc2cccc(C(=O)NCc3ccc4c(c3)OCO4)c2C1=O	12.6 µM [rising, partial curve]

# Part of the list above, tab-delimited.
row	SMILES	AC50
6	COc1ccccc1CCn1c(=O)c(-c2ccc(F)cc2)nc2cncnc21	20 µM [rising, partial curve, poor fit]
11	N#Cc1nc(COc2cccc(Cl)c2)oc1NCc1ccncc1	10 µM [rising, single point]

# The list goes on:

row,SMILES,AC50
1,COc1cccc(-c2cc(=O)c3cc(O)ccc3o2)c1,"3.98 µM [falling, single point]"
2,CCOC(=O)N1CCN(c2nc3ccccc3nc2C(C#N)C(=O)NCCc2ccccc2)CC1 (stereo not drawn),"3.98 µM [rising, partial curve]"
3,COc1ccc(-c2nnn(Cc3nc(N)nc(N4CCCCC4)n3)n2)cc1,"3.16 µM [rising, partial curve]"
4,COCCNc1ncnc2ccc(-c3ccccc3C)cc12,"6.31 µM [rising, partial curve]"
5,CCOC(=O)N1CCN(C2=Nc3cccc4cccc2c34)CC1,"3.16 µM [rising, full curve]"
6,O=C(c1ccccc1)N1CCN(C(=O)N2CCOCC2)CC1,"0.631 µM [falling, full curve]"
7,CC(CCc1ccccc1)NC(=O)CN1CCN(Cc2ccccc2)C1=O (stereo not drawn),"1 µM [rising, single point]"
8,Cc1ccc(OCC(O)Cn2c(=N)n(CCN3CCCCC3)c3ccccc32)cc1 (stereo not drawn),"2 µM [rising, full curve, poor fit]"
9,COc1ccc(C(C(=O)NC2CCCC2)N(CCN(C)C)C(=O)c2snc(C(N)=O)c2N)cc1 (stereo not drawn),"5.01 µM [falling, single point]"
10,CCN(CC)CCN1C(=O)C2C3c4ccccc4C(c4ccccc43)C2C1=O (stereo not drawn),"0.00316 µM [falling, full curve, poor fit]"
11,COc1ccc(C)cc1-n1c(SCC(=O)Nc2cc(C)on2)nc2sc(C)c(C)c2c1=O,"5.01 µM [rising, partial curve]"
12,Cc1ccc(S(=O)(=O)N2CC(=O)Nc3ccccc32)cc1C,"0.00398 µM [falling, full curve, poor fit]"
13,CC1CCc2c(C(=O)Oc3cccc(-n4cnnn4)c3)csc2C1 (stereo not drawn),"25.1 µM [rising, single point]"
14,O=c1cnc2cncnc2n1Cc1ccccc1Cl,"5.01 µM [rising, full curve]"
15,COc1ccc(-c2cc(C(=O)N3CCN(c4ccccn4)CC3)c3ccccc3n2)cc1,"25.1 µM [falling, single point]"
16,Cc1nn(C(C)C(=O)O)c2ccccc12 (stereo not drawn),"3.16 µM [falling, partial curve, poor fit]"
17,Cc1ccc(C)c(N2CCN(S(=O)(=O)c3ccc4c(c3)oc(=O)n4C)CC2)c1,"5.01 µM [falling, single point]"
18,COc1ccc(Cc2nccc3cc(OC)c(OC)cc23)cc1OC,"1.26 µM [rising, full curve] and 794 nM [rising, full curve] and 126 nM [rising, full curve]"
19,COc1cccc(C(=O)COC(=O)C(C)N2C(=O)c3ccccc3C2=O)c1 (stereo not drawn),"1 µM [falling, partial curve]"
20,COCCOC(=O)c1c(NC(=O)CN2CCOCC2)sc(C(N)=O)c1C,"0.1 µM [falling, full curve, poor fit]"
21,COc1ccc(NS(=O)(=O)c2ccc(NS(=O)(=O)c3ccc(C)cc3)cc2)nn1,"1 µM [rising, full curve]"
